# From paper PMC7862700
# Protein sequences, listed by entry. Tags and fused reporters are not part of them. Lines headed by an entry give the natural chain unless they say otherwise; changes in a name come on top.
# UniProt P41212: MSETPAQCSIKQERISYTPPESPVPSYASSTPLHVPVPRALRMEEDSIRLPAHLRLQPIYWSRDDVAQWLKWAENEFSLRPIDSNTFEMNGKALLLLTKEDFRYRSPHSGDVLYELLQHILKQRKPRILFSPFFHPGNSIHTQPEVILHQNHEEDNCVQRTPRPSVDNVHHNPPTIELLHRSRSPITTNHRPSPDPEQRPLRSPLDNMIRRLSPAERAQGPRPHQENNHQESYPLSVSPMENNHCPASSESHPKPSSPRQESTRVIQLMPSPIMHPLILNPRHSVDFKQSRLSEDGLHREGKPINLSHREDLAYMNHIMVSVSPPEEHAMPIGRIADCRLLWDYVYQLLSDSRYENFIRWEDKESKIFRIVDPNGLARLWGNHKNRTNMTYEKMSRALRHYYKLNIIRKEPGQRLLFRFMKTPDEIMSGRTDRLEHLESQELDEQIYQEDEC
# UniProt Q9Y603: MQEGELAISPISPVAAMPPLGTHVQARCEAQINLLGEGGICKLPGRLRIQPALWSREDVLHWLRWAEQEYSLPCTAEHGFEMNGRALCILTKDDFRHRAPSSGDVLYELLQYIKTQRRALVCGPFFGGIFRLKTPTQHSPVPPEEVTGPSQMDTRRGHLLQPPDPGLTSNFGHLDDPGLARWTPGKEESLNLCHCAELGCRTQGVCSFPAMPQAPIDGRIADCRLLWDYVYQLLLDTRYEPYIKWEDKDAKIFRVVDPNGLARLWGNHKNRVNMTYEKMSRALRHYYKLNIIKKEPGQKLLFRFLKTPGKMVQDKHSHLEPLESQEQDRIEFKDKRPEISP
# The list shows a part of the results, in another mix than the full data. At the low end of the ranking the order means little.
# Columns and labels:
# Assay in all cases: DAPPL (digital affinity profiling via proximity ligation, sequencing)
# Conditions in all cases: 10 mM Tris-HCl pH 7.5, 50 mM NaCl, 1 mM DTT, 4% glycerol, room temperature, 30 min; GST-TFs on glutathione beads, 16-mer random dsDNA library, 0.1% …; high values mean tight binding; double strand, one strand shown; scale: fold enrichment (6-mer frequency, TF over GST control)
# ELF3 = biological target: T1, ELF3 (UniProt P78545)
# T1 sequence: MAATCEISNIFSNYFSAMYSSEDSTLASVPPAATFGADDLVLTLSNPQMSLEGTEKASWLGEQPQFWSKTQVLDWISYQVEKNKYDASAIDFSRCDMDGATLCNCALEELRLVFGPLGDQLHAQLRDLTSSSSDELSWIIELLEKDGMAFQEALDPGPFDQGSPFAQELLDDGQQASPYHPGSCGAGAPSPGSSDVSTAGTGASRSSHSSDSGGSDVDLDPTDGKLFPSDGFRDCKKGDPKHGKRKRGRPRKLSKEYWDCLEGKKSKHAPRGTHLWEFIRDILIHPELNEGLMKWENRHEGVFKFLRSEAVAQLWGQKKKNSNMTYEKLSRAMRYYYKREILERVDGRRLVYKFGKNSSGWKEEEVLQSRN
# ETV6 = ETV6 (UniProt P41212)
# ETV7 = ETV7 (UniProt Q9Y603)
Sequence,binding signal (ELF3),binding signal (ETV6),binding signal (ETV7)
CATATA,1.07,1.12,–
CTACTT,1.89,2.02,–
AAAGAA,1.29,1.3,–
GTATTA,1.09,1.16,–
ACTAAC,1.25,1.22,–
ATGACT,1.46,1.3,–
AAATGT,1.54,1.31,–
AAGCAC,0.995,1.28,–
AACGAA,1.19,1.17,–
ACAGAT,0.853,0.944,–
TAACGA,1.02,1.08,–
CGTCTA,1.29,1.26,–
GTGCTT,1.14,1.37,–
TGATGG,1.32,1.21,–
GGTCCT,0.881,0.969,–
ACACAC,1.23,1.21,–

Sequence,binding signal (ELF3),binding signal (ETV6),binding signal (ETV7)
TACTTC,3.4,4.67,–
TTATCA,0.949,1,–
CTCTTG,1.22,1.2,–
TATAAG,1.23,1.19,–
CCTGGG,1.06,1.1,–
GCTGAT,1.16,0.986,–
GATTTC,1.62,1.8,–
CAACAA,1.2,1.01,–
TACCTC,1.27,1.11,–
CACTTC,3.05,4.24,–
TCTGTT,1.53,1.35,–
CCCCAT,1.16,1.25,–
GCATCC,–,1.57,1.43
AAGGTA,–,1.19,1.18
CGCTAG,–,1.04,0.911

# In a second layout: results already given
Sequence	binding signal (ELF3)	binding signal (ETV6)	binding signal (ETV7)
GATTTC	1.62	1.8	–
CAACAA	1.2	1.01	–
